Our source for the binding values is paper PMC13308598.

Sequences of proteins named here, by UniProt entry; tags and fusion partners are left off.
UniProt Q8C0Y1: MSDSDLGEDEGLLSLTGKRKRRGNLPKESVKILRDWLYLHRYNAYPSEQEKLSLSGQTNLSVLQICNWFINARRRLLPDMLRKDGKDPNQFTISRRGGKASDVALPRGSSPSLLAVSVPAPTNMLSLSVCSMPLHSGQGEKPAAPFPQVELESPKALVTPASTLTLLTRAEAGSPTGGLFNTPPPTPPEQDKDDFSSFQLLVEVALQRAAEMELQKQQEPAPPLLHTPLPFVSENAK
UniProt O09106: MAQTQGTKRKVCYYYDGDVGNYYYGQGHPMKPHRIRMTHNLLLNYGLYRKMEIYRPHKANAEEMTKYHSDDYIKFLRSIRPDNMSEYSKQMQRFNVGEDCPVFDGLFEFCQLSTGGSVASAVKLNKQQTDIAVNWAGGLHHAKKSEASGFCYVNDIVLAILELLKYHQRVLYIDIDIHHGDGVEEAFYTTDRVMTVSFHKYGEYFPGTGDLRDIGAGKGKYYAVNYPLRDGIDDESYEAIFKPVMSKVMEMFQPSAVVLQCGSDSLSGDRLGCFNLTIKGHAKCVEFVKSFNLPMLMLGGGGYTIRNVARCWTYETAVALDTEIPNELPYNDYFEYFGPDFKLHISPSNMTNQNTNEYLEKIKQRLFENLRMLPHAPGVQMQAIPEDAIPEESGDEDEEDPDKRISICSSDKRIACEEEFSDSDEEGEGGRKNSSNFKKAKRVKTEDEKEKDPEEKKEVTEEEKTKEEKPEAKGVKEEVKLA
UniProt P70288: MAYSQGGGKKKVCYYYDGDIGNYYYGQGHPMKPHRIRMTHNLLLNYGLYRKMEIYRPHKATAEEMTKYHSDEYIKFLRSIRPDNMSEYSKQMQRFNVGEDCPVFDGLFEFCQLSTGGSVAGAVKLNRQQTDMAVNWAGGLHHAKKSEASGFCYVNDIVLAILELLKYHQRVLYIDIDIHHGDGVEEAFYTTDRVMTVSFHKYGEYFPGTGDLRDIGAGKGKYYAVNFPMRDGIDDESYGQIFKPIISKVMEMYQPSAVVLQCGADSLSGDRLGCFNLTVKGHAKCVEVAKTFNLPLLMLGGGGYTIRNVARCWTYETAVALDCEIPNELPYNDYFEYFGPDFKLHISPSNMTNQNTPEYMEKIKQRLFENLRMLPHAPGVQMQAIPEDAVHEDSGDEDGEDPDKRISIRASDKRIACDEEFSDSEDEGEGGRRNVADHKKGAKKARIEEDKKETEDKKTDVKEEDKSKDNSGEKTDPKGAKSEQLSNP

The assay has as its target triple-Flag–tagged TGIF2a (transforming growth factor–β–induced homeobox factor 2, isoform a) (UniProt Q8C0Y1). Kind of assay: co-IP; N2A cells transfected, lysed after 48 hours in nondenaturing buffer (20 mM tris-HCl pH 8.0, 137 mM NaCl, 1% NP-40, 2 mM EDTA); anti-FLAG antibody or rabbit IgG isotype control, Protein G Dynabeads, 4°C; Western blot for HDAC1, HDAC2, SIN3A and FLAG. Background: A western blot detects proteins with antibodies after separation by electrophoresis.

Results are given in words; binding and its absence hold for the method and conditions named. In cells and extracts the contact can be indirect. Some results given as binding are weak or reduced against the parent protein; the word gives no strength.

HDAC1 (from UniProt O09106 1-482): the binding entry is “binds”.

As to HDAC2 (from UniProt P70288 1-488), the binding entry is recorded as “binds”.

B1: SIN3 transcription regulator family member A (protein, UniProt Q60520 1-1274)
chain: MKRRLDDQESPVYAAQQRRIPGSTEAFSHQHRVLAPAPPVYEAVSETMQSATGIQYSVAPNYQVSAVPQSSGSHGPAIAAVHSSHHHPTAVQPHGGQVVQSHAHPAPPVAPVQGQQQFQRLKVEDALSYLDQVKLQFGSQPQVYNDFLDIMKEFKSQSIDTPGVISRVSQLFKGHPDLIMGFNTFLPPGYKIEVQTNDMVNVTTPGQVHQIPTHGIQPQPQPPPQHPSQPSSQSAPTPAQPAPQPTAAKVSKPSQLQAHTPASQQTPPLPPYASPRSPPVQPHTPVTISLGTAPSLQNNQPVEFNHAINYVNKIKNRFQGQPDIYKAFLEILHTYQKEQRNAKEAGGNYTPALTEQEVYAQVARLFKNQEDLLSEFGQFLPDANSSVLLSKTTAEKVDSVRNDHGGTVKKPQLNNKPQRPSQNGCQIRRHSGTGATPPVKKKPKLMSLKESSMADASKHGVGTESLFFDKVRKALRSAEAYENFLRCLVIFNQEVISRAELVQLVSPFLGKFPELFNWFKNFLGYKESVHLESFPKERATEGIAMEIDYASCKRLGSSYRALPKSYQQPKCTGRTPLCKEVLNDTWVSFPSWSEDSTFVSSKKTQYEEHIYRCEDERFELDVVLETNLATIRVLEAIQKKLSRLSAEEQAKFRLDNTLGGTSEVIHRKALQRIYADKAADIIDGLRKNPSIAVPIVLKRLKMKEEEWREAQRGFNKVWREQNEKYYLKSLDHQGINFKQNDTKVLRSKSLLNEIESIYDERQEQATEENAGVPVGPHLSLAYEDKQILEDAAALIIHHVKRQTGIQKEDKYKIKQIMHHFIPDLLFAQRGDLSDVEEEEEEEMDVDEATGAPKKHNGVGGSPPKSKLLFSNTAAQKLRGMDEVYNLFYVNNNWYIFMRLHQILCLRLLRICSQAERQIEEENREREWEREVLGIKRDKSDSPAIQLRLKEPMDVDVEDYYPAFLDMVRSLLDGNIDSSQYEDSLREMFTIHAYIAFTMDKLIQSIVRQLQHIVSDEVCVQVTDLYLAENNNGATGGQLNSQTSRSLLESAYQRKAEQLMSDENCFKLMFIQSQGQVQLTVELLDTEEENSDDPVEAERWSDYVERYMSSDTTSPELREHLAQKPVFLPRNLRRIRKCQRGREQQEKEGKEGNSKKTMENVESLDKLECRFKLNSYKMVYVIKSEDYMYRRTALLRAHQSHERVSKRLHQRFQAWVDKWTKEHVPREMAAETSKWLMGEGLEGLVPCTTTCDTETLHFVSINKYRVKYGTVFKAP
B1: the binding entry is given as “binds”.
